Literature values as cited in US9889085B1, “Therapeutic methods for the treatment of diabetes and related conditions for patients with high baseline HbA1c” (Intarcia Therapeutics, Inc., priority 2014, dated 2018).
At least one structure is not confirmed: it was looked up by name or label, or the drawing left a doubt.

Tested on: subjects with type 2 diabetes
Conditions: once-daily 1.8 mg injections; 26 weeks

SMILES: CCCCCCCCCCCCCCCC(=O)N[C@@H](CCC(=O)NCCCC[C@H](NC(=O)[C@H](C)NC(=O)[C@H](C)NC(=O)[C@H](CCC(N)=O)NC(=O)CNC(=O)[C@H](CCC(=O)O)NC(=O)[C@H](CC(C)C)NC(=O)[C@H](Cc1ccc(O)cc1)NC(=O)[C@H](CO)NC(=O)[C@H](CO)NC(=O)[C@@H](NC(=O)[C@H](CC(=O)O)NC(=O)[C@H](CO)NC(=O)[C@@H](NC(=O)[C@H](Cc1ccccc1)NC(=O)[C@@H](NC(=O)CNC(=O)[C@H](CCC(=O)O)NC(=O)[C@H](C)NC(=O)[C@@H](N)Cc1cnc[nH]1)[C@@H](C)O)[C@@H](C)O)C(C)C)C(=O)N[C@@H](CCC(=O)O)C(=O)N[C@@H](Cc1ccccc1)C(=O)N[C@H](C(=O)N[C@@H](C)C(=O)N[C@@H](Cc1c[nH]c2ccccc12)C(=O)N[C@@H](CC(C)C)C(=O)N[C@H](C(=O)N[C@@H](CCCNC(=N)N)C(=O)NCC(=O)N[C@@H](CCCNC(=N)N)C(=O)NCC(=O)O)C(C)C)[C@@H](C)CC)C(=O)O [liraglutide]
- average HbA1c % decrease compared with ITCA 650 20/60 phase 3 subjects: nearly identical
